Assay results published in publication PMC4515320.
Results are given in words; binding and its absence hold for the method and conditions named. In cells and extracts the contact can be indirect. Some results given as binding are weak or reduced against the parent protein; the word gives no strength.

Sequences of proteins named here, by UniProt entry; tags and fusion partners are left off.
UniProt P06240: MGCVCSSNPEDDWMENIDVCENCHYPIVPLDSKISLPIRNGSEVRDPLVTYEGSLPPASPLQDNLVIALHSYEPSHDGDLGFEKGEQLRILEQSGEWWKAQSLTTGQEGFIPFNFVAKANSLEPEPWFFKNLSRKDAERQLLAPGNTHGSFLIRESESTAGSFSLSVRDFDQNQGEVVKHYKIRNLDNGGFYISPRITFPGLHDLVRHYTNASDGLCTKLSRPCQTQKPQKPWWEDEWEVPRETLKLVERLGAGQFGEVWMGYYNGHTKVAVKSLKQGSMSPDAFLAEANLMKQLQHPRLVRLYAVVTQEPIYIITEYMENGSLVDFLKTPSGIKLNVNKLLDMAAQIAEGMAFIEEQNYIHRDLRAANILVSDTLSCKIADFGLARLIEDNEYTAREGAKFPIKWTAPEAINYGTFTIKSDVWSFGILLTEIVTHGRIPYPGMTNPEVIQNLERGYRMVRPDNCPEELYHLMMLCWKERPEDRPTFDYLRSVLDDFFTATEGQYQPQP

Molecular target: T1, CR6-interacting factor 1 (CRIF1), mouse (mouse (endogenous in LSTRA)) (UniProt Q9CR59)
T1 sequence: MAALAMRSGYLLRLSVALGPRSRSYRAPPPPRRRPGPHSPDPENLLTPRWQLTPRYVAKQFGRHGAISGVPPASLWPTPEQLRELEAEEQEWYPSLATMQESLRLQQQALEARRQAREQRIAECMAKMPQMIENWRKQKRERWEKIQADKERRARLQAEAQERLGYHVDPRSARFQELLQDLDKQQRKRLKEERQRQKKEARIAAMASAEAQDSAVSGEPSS
Assay: co-IP; LSTRA whole cell lysate immunoprecipitated with anti-CRIF1 antibody or control IgG; Lck and CRIF1 immunoblotting

Lymphocyte-specific protein tyrosine kinase (Lck), mouse (from UniProt P06240 1-509) (enzyme)
binding: binds
